According to the supplement of paper PMC10849652:
Some of the results follow.

Chains of the proteins cited; added tags and fusions are not shown. Lines headed by an entry give the natural chain unless they say otherwise; changes in a name come on top.
UniProt P09496: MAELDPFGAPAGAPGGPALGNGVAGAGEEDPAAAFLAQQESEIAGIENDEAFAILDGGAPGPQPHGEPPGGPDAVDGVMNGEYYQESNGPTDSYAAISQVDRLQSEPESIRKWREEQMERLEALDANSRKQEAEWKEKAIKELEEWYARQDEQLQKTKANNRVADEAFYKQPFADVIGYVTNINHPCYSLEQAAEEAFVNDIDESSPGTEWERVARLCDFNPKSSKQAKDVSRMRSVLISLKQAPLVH
UniProt Q9UFF9, whole entry, looked up: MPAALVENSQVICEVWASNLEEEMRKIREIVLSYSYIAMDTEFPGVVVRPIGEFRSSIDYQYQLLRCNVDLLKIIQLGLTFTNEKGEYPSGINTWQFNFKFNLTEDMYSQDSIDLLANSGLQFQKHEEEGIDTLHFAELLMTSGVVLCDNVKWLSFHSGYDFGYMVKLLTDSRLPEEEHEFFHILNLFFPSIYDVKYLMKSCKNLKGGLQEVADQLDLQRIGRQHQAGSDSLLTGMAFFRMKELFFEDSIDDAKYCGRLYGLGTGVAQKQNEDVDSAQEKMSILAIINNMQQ
UniProt Q9Y2R0: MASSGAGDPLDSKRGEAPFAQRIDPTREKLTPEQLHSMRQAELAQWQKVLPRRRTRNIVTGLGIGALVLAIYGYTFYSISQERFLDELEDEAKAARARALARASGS
UniProt P12277: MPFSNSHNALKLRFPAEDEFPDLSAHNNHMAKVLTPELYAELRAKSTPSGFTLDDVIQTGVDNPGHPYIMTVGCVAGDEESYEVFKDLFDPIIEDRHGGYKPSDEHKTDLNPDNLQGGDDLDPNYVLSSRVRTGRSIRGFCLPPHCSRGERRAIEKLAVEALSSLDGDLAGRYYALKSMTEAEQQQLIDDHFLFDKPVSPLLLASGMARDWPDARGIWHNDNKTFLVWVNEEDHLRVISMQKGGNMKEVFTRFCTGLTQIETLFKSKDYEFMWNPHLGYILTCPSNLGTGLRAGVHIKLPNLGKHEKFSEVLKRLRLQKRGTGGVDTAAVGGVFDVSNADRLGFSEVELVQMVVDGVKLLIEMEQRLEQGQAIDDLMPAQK
UniProt P09497: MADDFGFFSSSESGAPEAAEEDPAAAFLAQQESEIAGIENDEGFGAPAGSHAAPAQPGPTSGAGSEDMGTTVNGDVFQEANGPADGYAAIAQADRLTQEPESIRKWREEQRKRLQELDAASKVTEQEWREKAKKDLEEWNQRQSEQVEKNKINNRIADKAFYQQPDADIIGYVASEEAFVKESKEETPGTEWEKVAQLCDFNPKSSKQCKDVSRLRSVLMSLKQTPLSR
UniProt Q96BR5: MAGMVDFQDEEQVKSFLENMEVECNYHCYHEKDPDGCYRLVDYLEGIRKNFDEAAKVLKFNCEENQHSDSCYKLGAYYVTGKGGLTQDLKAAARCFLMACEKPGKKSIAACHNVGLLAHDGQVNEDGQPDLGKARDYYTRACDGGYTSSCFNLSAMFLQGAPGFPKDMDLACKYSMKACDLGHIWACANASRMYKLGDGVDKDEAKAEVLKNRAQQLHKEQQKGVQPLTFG
UniProt Q7Z460: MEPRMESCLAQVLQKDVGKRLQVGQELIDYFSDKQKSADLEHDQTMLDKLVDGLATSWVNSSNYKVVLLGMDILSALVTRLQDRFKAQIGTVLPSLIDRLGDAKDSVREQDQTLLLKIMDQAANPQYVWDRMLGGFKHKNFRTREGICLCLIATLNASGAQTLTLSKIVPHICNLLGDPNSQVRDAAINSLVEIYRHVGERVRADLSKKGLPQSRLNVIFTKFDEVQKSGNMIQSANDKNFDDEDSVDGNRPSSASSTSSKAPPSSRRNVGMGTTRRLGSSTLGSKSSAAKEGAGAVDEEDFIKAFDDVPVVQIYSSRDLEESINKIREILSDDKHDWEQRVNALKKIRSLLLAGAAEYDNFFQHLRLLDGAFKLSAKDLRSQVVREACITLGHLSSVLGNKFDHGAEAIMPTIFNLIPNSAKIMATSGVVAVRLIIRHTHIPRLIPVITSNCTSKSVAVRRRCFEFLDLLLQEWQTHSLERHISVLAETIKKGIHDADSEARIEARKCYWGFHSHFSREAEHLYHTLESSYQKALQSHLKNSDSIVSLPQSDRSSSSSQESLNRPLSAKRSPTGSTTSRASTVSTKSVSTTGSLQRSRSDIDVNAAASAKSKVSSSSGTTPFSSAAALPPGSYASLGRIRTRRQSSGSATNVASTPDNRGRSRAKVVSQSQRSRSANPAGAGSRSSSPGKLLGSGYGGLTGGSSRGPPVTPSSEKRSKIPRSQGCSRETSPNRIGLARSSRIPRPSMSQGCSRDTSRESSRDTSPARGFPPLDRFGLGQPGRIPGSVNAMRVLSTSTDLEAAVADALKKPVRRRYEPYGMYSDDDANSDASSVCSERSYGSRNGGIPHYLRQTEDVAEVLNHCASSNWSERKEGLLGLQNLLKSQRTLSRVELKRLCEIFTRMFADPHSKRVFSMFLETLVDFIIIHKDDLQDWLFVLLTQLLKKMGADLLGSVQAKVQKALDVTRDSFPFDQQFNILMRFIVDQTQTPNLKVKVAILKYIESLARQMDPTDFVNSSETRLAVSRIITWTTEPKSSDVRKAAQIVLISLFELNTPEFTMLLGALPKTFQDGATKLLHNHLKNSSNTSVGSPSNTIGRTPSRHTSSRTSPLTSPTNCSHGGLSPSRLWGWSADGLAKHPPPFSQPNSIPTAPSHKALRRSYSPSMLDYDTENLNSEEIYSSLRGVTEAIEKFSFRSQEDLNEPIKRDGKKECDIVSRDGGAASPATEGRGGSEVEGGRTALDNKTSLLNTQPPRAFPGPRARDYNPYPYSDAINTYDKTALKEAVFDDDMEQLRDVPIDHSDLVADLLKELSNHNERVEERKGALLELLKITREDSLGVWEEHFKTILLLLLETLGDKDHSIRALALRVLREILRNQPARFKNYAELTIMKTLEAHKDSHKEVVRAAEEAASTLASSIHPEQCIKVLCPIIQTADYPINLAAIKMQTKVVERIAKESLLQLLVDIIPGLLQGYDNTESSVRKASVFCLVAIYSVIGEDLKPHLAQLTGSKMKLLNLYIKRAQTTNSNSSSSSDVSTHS
UniProt Q8IWV2: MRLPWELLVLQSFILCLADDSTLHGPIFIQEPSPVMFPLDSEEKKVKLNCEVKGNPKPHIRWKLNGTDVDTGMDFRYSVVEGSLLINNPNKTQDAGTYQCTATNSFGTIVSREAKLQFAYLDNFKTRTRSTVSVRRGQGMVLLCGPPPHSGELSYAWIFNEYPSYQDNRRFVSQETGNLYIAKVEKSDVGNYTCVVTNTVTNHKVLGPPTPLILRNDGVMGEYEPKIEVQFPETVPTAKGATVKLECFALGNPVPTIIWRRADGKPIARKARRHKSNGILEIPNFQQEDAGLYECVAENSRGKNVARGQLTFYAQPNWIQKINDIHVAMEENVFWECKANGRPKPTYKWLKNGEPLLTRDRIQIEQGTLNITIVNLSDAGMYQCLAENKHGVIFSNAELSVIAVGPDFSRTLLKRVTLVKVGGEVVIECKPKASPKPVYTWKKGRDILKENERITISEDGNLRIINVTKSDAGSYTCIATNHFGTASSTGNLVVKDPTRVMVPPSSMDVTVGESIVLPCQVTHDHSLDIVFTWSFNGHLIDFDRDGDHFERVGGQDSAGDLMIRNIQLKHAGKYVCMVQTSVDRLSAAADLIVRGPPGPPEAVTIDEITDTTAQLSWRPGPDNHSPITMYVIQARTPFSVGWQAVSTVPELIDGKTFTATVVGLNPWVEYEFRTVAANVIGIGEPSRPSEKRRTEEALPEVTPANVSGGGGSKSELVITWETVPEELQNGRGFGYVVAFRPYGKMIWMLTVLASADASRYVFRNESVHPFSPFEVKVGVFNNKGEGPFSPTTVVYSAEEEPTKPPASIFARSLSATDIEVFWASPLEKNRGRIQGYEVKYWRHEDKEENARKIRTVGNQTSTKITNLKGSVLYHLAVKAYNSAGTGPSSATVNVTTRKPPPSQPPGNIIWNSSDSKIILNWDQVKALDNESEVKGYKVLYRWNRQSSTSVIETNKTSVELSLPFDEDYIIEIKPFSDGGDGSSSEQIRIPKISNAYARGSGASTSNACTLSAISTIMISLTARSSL
UniProt Q14008: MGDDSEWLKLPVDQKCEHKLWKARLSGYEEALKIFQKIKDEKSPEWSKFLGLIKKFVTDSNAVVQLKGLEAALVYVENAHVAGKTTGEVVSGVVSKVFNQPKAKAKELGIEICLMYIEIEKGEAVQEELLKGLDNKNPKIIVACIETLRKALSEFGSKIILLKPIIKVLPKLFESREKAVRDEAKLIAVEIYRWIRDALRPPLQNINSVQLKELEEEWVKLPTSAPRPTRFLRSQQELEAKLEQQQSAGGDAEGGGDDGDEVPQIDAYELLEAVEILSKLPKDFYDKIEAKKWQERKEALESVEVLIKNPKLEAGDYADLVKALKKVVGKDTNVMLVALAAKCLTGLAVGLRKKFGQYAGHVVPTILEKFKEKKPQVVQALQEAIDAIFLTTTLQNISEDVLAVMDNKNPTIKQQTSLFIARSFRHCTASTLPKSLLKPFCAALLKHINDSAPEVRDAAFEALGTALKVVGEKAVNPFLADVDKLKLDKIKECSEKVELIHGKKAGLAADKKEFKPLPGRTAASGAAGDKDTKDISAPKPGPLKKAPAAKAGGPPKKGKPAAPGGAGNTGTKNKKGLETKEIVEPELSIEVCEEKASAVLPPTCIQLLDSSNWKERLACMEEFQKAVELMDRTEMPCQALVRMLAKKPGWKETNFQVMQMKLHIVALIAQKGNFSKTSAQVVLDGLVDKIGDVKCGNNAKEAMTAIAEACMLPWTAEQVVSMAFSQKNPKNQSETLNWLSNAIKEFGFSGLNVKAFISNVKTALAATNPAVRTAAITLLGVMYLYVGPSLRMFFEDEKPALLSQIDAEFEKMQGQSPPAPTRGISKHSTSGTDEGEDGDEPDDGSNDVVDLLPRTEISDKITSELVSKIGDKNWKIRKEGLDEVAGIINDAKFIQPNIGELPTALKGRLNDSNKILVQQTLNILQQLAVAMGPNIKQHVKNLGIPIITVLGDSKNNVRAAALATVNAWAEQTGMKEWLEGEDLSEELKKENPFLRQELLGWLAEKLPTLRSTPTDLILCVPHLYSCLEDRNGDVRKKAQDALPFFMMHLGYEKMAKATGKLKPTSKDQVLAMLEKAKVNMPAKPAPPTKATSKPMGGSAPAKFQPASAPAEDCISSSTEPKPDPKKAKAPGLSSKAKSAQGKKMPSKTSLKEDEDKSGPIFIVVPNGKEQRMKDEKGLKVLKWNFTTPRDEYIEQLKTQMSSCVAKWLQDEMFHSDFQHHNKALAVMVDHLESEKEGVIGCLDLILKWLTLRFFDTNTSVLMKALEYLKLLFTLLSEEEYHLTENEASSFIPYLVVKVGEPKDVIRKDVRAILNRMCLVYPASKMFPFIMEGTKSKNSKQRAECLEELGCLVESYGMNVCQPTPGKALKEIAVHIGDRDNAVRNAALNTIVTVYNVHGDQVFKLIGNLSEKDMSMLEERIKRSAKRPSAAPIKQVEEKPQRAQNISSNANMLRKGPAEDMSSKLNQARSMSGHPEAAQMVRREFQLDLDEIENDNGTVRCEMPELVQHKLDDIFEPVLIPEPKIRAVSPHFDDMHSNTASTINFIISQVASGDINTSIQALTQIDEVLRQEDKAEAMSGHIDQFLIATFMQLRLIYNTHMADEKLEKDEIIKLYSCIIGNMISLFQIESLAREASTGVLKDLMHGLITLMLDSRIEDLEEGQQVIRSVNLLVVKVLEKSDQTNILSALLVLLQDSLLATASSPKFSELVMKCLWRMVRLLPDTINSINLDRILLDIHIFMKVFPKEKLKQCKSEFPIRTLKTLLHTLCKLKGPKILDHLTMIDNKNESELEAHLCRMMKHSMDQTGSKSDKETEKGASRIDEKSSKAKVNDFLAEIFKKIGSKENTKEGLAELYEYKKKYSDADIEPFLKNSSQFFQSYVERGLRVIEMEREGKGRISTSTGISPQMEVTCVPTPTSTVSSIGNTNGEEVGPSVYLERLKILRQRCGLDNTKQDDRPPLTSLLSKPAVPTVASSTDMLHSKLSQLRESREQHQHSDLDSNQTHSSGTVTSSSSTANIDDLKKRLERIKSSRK
UniProt P54105: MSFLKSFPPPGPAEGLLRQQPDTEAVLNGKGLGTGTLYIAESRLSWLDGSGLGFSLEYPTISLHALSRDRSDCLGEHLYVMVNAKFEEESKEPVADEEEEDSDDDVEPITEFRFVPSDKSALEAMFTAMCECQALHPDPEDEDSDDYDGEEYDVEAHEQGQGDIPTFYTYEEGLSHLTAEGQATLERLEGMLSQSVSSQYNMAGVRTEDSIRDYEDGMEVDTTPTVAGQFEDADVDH
UniProt Q9H5X1: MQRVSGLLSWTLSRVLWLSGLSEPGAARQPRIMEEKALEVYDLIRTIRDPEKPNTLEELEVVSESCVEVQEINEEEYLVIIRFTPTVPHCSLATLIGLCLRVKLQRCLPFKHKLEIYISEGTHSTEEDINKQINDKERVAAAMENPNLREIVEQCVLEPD

Compound: CC[C@H](C)[C@@H](C(=O)N[C@@H]([C@@H](C)O)C(=O)N[C@@H](CC(C)C)C(=O)[C@]1(CO1)C)NC(=O)[C@H]([C@@H](C)CC)N(C)C(=O)C [epoxomicin]
Test: log2 fold change, soluble protein after heating vs DMSO (PISA); higher = thermal stabilisation; K562 cells, 10 uM, 30 min; active = over 0.2 and 3.5 SD of the protein, either way, in both replicates (recomputed)
Outline: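 K562 cells at 2×10^6 cells/mL were treated for 30 min with 10 μM compound, and aliquots were heated for 3 min over 48°C-58°C before pooling. Extraction used PBS with 0.5% NP-40 at 4°C, and soluble protein was the supernatant after 21,000xg for 90 min, measured by TMTpro 16plex LC-MS/MS with channel sums equalised. Thermal stability values, relative to control samples and from duplicates, are log2 fold changes.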

log2 fold change, inactive:
CISD3 (UniProt P0C7P0) 0.043, CLTA isoform 2 (UniProt P09496) 0.222, CMSS1 (UniProt Q9BQ75) -0.116, CNOT8 (UniProt Q9UFF9) 0.095, COA3 (UniProt Q9Y2R0) -0.041, CKB (UniProt P12277) 0.044, CNP (UniProt P09543) 0.024, CNOT6L (UniProt Q96LI5) -0.019, COL15A1 (UniProt P39059) 0.106, CLCN7 (UniProt P51798) -0.001, CLEC16A (UniProt Q2KHT3) 0, CLTB (UniProt P09497) 0.032, COA7 (UniProt Q96BR5) 0.046, CLASP1 (UniProt Q7Z460) 0.059, CNTN4 (UniProt Q8IWV2) 0.149, CKAP5 (UniProt Q14008) 0.057, CNOT10 isoform 6 (UniProt Q9H9A5) -0.007, CLIC1 (UniProt O00299) 0.017, CLNS1A (UniProt P54105) 0.038, CMAS (UniProt Q8NFW8) -0.085, CKMT1A (UniProt P12532) 0.013, CLIP1 isoform 1 (UniProt P30622) -0.002, CIAO2A (UniProt Q9H5X1) 0.005
